Experimental data as given in article PMC9967848.
Results are given in words; binding and its absence hold for the method and conditions named. In cells and extracts the contact can be indirect. A yes stands for co-enrichment or nearness to the bait. Other partners may have been found.

The chains behind the UniProt entries cited, without tags or fusion partners.
UniProt Q9P2J5: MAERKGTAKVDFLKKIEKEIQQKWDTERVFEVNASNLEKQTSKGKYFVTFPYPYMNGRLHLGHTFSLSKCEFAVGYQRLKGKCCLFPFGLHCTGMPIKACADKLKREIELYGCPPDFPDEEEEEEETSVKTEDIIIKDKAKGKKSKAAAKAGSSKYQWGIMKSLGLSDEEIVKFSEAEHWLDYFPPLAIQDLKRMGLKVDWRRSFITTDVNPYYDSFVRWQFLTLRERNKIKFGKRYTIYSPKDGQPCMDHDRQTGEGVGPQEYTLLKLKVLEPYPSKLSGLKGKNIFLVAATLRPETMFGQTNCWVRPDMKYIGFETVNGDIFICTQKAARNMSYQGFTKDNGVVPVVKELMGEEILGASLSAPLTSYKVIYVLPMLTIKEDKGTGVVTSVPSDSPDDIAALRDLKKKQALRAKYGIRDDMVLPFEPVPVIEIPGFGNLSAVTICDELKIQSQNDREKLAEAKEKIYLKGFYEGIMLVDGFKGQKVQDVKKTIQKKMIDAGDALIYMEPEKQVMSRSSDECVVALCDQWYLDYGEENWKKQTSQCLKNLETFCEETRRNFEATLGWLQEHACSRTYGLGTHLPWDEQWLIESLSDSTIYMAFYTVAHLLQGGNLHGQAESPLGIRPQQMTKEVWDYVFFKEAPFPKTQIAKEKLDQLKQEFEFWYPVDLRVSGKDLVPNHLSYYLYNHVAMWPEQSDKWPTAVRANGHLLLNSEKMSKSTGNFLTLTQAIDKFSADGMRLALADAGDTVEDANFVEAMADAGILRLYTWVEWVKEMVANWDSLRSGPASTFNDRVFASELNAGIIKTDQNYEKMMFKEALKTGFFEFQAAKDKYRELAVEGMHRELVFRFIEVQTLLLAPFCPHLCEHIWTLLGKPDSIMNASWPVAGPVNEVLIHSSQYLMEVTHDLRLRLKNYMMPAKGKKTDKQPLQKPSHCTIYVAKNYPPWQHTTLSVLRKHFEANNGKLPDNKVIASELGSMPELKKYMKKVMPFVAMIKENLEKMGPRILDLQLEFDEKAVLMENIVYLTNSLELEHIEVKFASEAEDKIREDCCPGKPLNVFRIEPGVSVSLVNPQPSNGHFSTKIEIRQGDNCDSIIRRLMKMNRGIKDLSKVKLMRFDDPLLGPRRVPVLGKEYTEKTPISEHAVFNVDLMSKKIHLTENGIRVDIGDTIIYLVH

B1: ARS-interacting multifunctional protein 2 (AIMP2/p38), endogenous (protein, UniProt Q13155 1-320)
chain: MPMYQVKPYHGGGAPLRVELPTCMYRLPNVHGRSYGPAPGAGHVQEESNLSLQALESRQDDILKRLYELKAAVDGLSKMIQTPDADLDVTNIIQADEPTTLTTNALDLNSVLGKDYGALKDIVINANPASPPLSLLVLHRLLCEHFRVLSTVHTHSSVKSVPENLLKCFGEQNKKQPRQDYQLGFTLIWKNVPKTQMKFSIQTMCPIEGEGNIARFLFSLFGQKHNAVNATLIDSWVDIAIFQLKEGSSKEKAAVFRSMNSALGKSPWLAGNELTVADVVLWSVLQQIGGCSVTVPANVQRWMRSCENLAPFNTALKLLK
B2: isoleucyl-tRNA synthetase (IARS), endogenous (enzyme, UniProt P41252 1-1262)
chain: MLQQVPENINFPAEEEKILEFWTEFNCFQECLKQSKHKPKFTFYDGPPFATGLPHYGHILAGTIKDIVTRYAHQSGFHVDRRFGWDCHGLPVEYEIDKTLGIRGPEDVAKMGITEYNNQCRAIVMRYSAEWKSTVSRLGRWIDFDNDYKTLYPQFMESVWWVFKQLYDKGLVYRGVKVMPFSTACNTPLSNFESHQNYKDVQDPSVFVTFPLEEDETVSLVAWTTTPWTLPSNLAVCVNPEMQYVKIKDVARGRLLILMEARLSALYKLESDYEILERFPGAYLKGKKYRPLFDYFLKCKENGAFTVLVDNYVKEEEGTGVVHQAPYFGAEDYRVCMDFNIIRKDSLPVCPVDASGCFTTEVTDFAGQYVKDADKSIIRTLKEQGRLLVATTFTHSYPFCWRSDTPLIYKAVPSWFVRVENMVDQLLRNNDLCYWVPELVREKRFGNWLKDARDWTISRNRYWGTPIPLWVSDDFEEVVCIGSVAELEELSGAKISDLHRESVDHLTIPSRCGKGSLHRISEVFDCWFESGSMPYAQVHYPFENKREFEDAFPADFIAEGIDQTRGWFYTLLVLATALFGQPPFKNVIVNGLVLASDGQKMSKRKKNYPDPVSIIQKYGADALRLYLINSPVVRAENLRFKEEGVRDVLKDVLLPWYNAYRFLIQNVLRLQKEEEIEFLYNENTVRESPNITDRWILSFMQSLIGFFETEMAAYRLYTVVPRLVKFVDILTNWYVRMNRRRLKGENGMEDCVMALETLFSVLLSLCRLMAPYTPFLTELMYQNLKVLIDPVSVQDKDTLSIHYLMLPRVREELIDKKTESAVSQMQSVIELGRVIRDRKTIPIKYPLKEIVVIHQDPEALKDIKSLEKYIIEELNVRKVTLSTDKNKYGIRLRAEPDHMVLGKRLKGAFKAVMTSIKQLSSEELEQFQKTGTIVVEGHELHDEDIRLMYTFDQATGGTAQFEAHSDAQALVLLDVTPDQSMVDEGMAREVINRIQKLRKKCNLVPTDEITVYYKAKSEGTYLNSVIESHTEFIFTTIKAPLKPYPVSPSDKVLIQEKTQLKGSELEITLTRGSSLPGPACAYVNLNICANGSEQGGVLLLENPKGDNRLDLLKLKSVVTSIFGVKNTELAVFHDETEIQNQTDLLSLSGKTLCVTAGSAPSLINSSSTLLCQYINLQLLNAKPQECLMGTVGTLLLENPLGQNGLTHQGLLYEAAKVFGLRSRKLKLFLNETQTQEITEDIPVKTLNMKTVYVSVLPTTADF
B3: methionyl-tRNA synthetase (MARS), endogenous (enzyme, UniProt P56192 1-900)
chain: MRLFVSDGVPGCLPVLAAAGRARGRAEVLISTVGPEDCVVPFLTRPKVPVLQLDSGNYLFSTSAICRYFFLLSGWEQDDLTNQWLEWEATELQPALSAALYYLVVQGKKGEDVLGSVRRALTHIDHSLSRQNCPFLAGETESLADIVLWGALYPLLQDPAYLPEELSALHSWFQTLSTQEPCQRAAETVLKQQGVLALRPYLQKQPQPSPAEGRAVTNEPEEEELATLSEEEIAMAVTAWEKGLESLPPLRPQQNPVLPVAGERNVLITSALPYVNNVPHLGNIIGCVLSADVFARYSRLRQWNTLYLCGTDEYGTATETKALEEGLTPQEICDKYHIIHADIYRWFNISFDIFGRTTTPQQTKITQDIFQQLLKRGFVLQDTVEQLRCEHCARFLADRFVEGVCPFCGYEEARGDQCDKCGKLINAVELKKPQCKVCRSCPVVQSSQHLFLDLPKLEKRLEEWLGRTLPGSDWTPNAQFITRSWLRDGLKPRCITRDLKWGTPVPLEGFEDKVFYVWFDATIGYLSITANYTDQWERWWKNPEQVDLYQFMAKDNVPFHSLVFPCSALGAEDNYTLVSHLIATEYLNYEDGKFSKSRGVGVFGDMAQDTGIPADIWRFYLLYIRPEGQDSAFSWTDLLLKNNSELLNNLGNFINRAGMFVSKFFGGYVPEMVLTPDDQRLLAHVTLELQHYHQLLEKVRIRDALRSILTISRHGNQYIQVNEPWKRIKGSEADRQRAGTVTGLAVNIAALLSVMLQPYMPTVSATIQAQLQLPPPACSILLTNFLCTLPAGHQIGTVSPLFQKLENDQIESLRQRFGGGQAKTSPKPAVVETVTTAKPQQIQALMDEVTKQGNIVRELKAQKADKNEVAAEVAKLLDLKKQLAVAEGKPPEAPKGKKKK
B4: glutaminyl-tRNA synthetase (QARS), endogenous (enzyme, UniProt P47897 1-775)
chain: MAALDSLSLFTSLGLSEQKARETLKNSALSAQLREAATQAQQTLGSTIDKATGILLYGLASRLRDTRRLSFLVSYIASKKIHTEPQLSAALEYVRSHPLDPIDTVDFERECGVGVIVTPEQIEEAVEAAINRHRPQLLVERYHFNMGLLMGEARAVLKWADGKMIKNEVDMQVLHLLGPKLEADLEKKFKVAKARLEETDRRTAKDVVENGETADQTLSLMEQLRGEALKFHKPGENYKTPGYVVTPHTMNLLKQHLEITGGQVRTRFPPEPNGILHIGHAKAINFNFGYAKANNGICFLRFDDTNPEKEEAKFFTAICDMVAWLGYTPYKVTYASDYFDQLYAWAVELIRRGLAYVCHQRGEELKGHNTLPSPWRDRPMEESLLLFEAMRKGKFSEGEATLRMKLVMEDGKMDPVAYRVKYTPHHRTGDKWCIYPTYDYTHCLCDSIEHITHSLCTKEFQARRSSYFWLCNALDVYCPVQWEYGRLNLHYAVVSKRKILQLVATGAVRDWDDPRLFTLTALRRRGFPPEAINNFCARVGVTVAQTTMEPHLLEACVRDVLNDTAPRAMAVLESLRVIITNFPAAKSLDIQVPNFPADETKGFHQVPFAPIVFIERTDFKEEPEPGFKRLAWGQPVGLRHTGYVIELQHVVKGPSGCVESLEVTCRRADAGEKPKAFIHWVSQPLMCEVRLYERLFQHKNPEDPTEVPGGFLSDLNLASLHVVDAALVDCSVALAKPFDKFQFERLGYFSVDPDSHQGKLVFNRTVTLKEDPGKV
B5: ARS-interacting multifunctional protein 1 (AIMP1/p43), endogenous (protein, UniProt Q12904 1-312)
chain: MANNDAVLKRLEQKGAEADQIIEYLKQQVSLLKEKAILQATLREEKKLRVENAKLKKEIEELKQELIQAEIQNGVKQIPFPSGTPLHANSMVSENVIQSTAVTTVSSGTKEQIKGGTGDEKKAKEKIEKKGEKKEKKQQSIAGSADSKPIDVSRLDLRIGCIITARKHPDADSLYVEEVDVGEIAPRTVVSGLVNHVPLEQMQNRMVILLCNLKPAKMRGVLSQAMVMCASSPEKIEILAPPNGSVPGDRITFDAFPGEPDKELNPKKKIWEQIQPDLHTNDECVATYKGVPFEVKGKGVCRAQTMSNSGIK

molecular target: FLAG-tagged HIV-1 MA (HIV-1) (UniProt P12493); assay: affinity purification with mass spectrometry

Molecule	binding
leucyl-tRNA synthetase (LARS), endogenous (from UniProt Q9P2J5 1-1176) (enzyme)	binds
lysyl-tRNA synthetase (LysRS, KARS), endogenous (from UniProt Q15046 1-597) (enzyme)	binds
B1	binds
B2	binds
B3	binds
B4	binds
B5	binds
